Legend:
[1] = tested on: U2OS cells expressing Per2-luciferase; assay: Circadian rhythm of U2OS cells expressing Per2-luciferase; type: cell-based, human
Description: (a) IKBKB inhibitors. The concentration of all the inhibitors was 10 μM, n=5. (b) IKBKE inhibitors.
The above experiments were conducted with the drug added to the culture media from the beginning.

[2] = tested on: mice in a 6 h advanced jet lag paradigm; assay: Mouse jet lag assay (LD cycle advanced by 6 h); type: in vivo; settings: single dose 0.1 mg/kg into lateral ventricle at CT20:00, p<0.01 vs control
Description: After adult mice were placed in a light/dark (LD) cycle of 12L:12D (light on at CT 3:00, light off at CT15:00) for 11 days, dinaciclib (0.1 mg/kg body weight) was applied at CT20:00. At CT21:00, the LD cycle was advanced by 6 h (light on at CT21:00, light off at CT9:00), and the mice were kept in the new LD for 14 days.
The tip of the cannula was inserted stereotaxically to the lateral ventricular of mice. After surgery, mice were returned to the home cage under a LD cycle (light on at CT3:00, light off at CT15:00) for 7 days before video recording of mouse activities began. After another four days, at CT 20:00, Dinaciclib dissolved in 20% hydroxypropyl-β-cyclodextran (Parry et al., 2010) (at the concentration of 5 mg/ml, at the speed of 0.5[…]1/min) or vehicle alone was pumped into the brain to achieve the total amount of 0.1 mg/kg of body weight by the UltraMicroPump III under the help of Micro4 Controller. At CT21:00 of the same day, the LD cycle was shifted to light on at CT21:00, light off at CT9:00, which was 6 hrs advanced. Mice were kept in the new LD for 14 days. Data was processed and moving distance/30 s was calculated.

CCc1cnn2c(NCc3ccc[n+]([O-])c3)cc(N3CCCC[C@H]3CCO)nc12 [Dinaciclib]
Delay of the first peak of Per2-luciferase expression (extent of phase shift) [1]: 9.408 h
EC50 ([1]; Homo sapiens, U2OS, Per2-luciferase expressing cells, dosage response, read-out: EC50 for phase shifting): 8.36 nM
Shift of the phase of the circadian clock, maximum ([1]; cultured human cells, dose- and phase-dependent, mean±SEM, n=4): up to 8.172±0.2194 hours (h)
50% phase shift time (PS50) [2]: 1.34 days

Reference: patent US20200009134A1, “Method and Compound for Modifying Circadian Clock” (Gritscience Biopharmaceuticals Co., Ltd., priority 2017, published 2020)
